According to the supplement of paper PMC10849652:
The other results are listed elsewhere or left out.

Sequences of proteins named here, by UniProt entry; tags and fusion partners are left off. A change or cut given only in a name is not applied to a line headed by its entry.
UniProt Q5SW79: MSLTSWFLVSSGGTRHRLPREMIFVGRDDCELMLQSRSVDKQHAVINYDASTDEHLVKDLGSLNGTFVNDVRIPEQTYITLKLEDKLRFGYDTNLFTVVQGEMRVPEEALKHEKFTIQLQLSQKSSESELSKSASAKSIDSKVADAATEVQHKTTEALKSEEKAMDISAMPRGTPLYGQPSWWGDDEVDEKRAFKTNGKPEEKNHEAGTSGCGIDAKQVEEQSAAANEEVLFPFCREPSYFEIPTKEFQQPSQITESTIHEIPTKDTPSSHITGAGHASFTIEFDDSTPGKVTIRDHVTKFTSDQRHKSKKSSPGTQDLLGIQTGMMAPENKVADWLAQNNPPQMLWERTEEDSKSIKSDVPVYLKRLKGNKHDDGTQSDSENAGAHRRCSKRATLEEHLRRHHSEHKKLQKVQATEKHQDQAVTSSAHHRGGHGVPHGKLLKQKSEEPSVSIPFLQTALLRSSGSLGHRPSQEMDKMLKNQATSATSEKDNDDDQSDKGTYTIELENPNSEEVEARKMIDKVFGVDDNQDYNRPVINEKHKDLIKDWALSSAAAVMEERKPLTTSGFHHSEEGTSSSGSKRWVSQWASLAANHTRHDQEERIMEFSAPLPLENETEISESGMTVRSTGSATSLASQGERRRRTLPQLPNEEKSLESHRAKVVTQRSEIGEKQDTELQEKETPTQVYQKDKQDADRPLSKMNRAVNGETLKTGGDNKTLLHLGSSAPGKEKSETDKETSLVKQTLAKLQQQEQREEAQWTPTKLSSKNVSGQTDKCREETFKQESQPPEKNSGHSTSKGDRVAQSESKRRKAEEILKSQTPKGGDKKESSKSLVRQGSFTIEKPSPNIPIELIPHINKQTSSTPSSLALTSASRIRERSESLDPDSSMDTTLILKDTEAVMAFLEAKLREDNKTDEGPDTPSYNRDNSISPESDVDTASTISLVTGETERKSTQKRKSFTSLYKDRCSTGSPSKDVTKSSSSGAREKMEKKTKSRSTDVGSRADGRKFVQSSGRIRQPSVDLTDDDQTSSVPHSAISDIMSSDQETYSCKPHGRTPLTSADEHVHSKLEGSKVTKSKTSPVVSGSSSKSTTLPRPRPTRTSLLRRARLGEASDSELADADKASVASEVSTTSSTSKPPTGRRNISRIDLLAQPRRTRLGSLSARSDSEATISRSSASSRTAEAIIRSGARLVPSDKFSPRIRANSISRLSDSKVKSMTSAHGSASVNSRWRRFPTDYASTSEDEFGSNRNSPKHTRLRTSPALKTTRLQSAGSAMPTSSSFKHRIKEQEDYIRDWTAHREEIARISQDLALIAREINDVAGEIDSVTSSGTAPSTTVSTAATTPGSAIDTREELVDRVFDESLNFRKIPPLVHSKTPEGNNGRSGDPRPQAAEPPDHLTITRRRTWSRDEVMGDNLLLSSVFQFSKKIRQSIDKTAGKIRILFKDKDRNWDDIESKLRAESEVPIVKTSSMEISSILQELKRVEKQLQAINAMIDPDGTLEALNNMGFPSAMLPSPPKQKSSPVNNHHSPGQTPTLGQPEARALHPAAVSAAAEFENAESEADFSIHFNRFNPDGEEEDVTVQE
UniProt Q9H211: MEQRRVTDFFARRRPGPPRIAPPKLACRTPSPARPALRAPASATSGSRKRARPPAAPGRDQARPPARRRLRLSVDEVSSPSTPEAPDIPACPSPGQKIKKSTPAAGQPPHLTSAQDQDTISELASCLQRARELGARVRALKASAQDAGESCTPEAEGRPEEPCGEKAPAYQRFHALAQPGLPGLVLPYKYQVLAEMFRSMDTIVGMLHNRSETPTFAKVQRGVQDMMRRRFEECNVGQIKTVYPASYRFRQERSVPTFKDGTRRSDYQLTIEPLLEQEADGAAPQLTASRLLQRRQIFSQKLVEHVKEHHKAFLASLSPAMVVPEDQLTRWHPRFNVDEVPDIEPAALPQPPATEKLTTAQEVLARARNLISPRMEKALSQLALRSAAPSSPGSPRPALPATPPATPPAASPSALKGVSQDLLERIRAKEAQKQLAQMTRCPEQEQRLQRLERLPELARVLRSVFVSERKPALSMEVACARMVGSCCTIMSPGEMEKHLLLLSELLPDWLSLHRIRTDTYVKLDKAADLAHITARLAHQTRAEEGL
UniProt Q9HCU4: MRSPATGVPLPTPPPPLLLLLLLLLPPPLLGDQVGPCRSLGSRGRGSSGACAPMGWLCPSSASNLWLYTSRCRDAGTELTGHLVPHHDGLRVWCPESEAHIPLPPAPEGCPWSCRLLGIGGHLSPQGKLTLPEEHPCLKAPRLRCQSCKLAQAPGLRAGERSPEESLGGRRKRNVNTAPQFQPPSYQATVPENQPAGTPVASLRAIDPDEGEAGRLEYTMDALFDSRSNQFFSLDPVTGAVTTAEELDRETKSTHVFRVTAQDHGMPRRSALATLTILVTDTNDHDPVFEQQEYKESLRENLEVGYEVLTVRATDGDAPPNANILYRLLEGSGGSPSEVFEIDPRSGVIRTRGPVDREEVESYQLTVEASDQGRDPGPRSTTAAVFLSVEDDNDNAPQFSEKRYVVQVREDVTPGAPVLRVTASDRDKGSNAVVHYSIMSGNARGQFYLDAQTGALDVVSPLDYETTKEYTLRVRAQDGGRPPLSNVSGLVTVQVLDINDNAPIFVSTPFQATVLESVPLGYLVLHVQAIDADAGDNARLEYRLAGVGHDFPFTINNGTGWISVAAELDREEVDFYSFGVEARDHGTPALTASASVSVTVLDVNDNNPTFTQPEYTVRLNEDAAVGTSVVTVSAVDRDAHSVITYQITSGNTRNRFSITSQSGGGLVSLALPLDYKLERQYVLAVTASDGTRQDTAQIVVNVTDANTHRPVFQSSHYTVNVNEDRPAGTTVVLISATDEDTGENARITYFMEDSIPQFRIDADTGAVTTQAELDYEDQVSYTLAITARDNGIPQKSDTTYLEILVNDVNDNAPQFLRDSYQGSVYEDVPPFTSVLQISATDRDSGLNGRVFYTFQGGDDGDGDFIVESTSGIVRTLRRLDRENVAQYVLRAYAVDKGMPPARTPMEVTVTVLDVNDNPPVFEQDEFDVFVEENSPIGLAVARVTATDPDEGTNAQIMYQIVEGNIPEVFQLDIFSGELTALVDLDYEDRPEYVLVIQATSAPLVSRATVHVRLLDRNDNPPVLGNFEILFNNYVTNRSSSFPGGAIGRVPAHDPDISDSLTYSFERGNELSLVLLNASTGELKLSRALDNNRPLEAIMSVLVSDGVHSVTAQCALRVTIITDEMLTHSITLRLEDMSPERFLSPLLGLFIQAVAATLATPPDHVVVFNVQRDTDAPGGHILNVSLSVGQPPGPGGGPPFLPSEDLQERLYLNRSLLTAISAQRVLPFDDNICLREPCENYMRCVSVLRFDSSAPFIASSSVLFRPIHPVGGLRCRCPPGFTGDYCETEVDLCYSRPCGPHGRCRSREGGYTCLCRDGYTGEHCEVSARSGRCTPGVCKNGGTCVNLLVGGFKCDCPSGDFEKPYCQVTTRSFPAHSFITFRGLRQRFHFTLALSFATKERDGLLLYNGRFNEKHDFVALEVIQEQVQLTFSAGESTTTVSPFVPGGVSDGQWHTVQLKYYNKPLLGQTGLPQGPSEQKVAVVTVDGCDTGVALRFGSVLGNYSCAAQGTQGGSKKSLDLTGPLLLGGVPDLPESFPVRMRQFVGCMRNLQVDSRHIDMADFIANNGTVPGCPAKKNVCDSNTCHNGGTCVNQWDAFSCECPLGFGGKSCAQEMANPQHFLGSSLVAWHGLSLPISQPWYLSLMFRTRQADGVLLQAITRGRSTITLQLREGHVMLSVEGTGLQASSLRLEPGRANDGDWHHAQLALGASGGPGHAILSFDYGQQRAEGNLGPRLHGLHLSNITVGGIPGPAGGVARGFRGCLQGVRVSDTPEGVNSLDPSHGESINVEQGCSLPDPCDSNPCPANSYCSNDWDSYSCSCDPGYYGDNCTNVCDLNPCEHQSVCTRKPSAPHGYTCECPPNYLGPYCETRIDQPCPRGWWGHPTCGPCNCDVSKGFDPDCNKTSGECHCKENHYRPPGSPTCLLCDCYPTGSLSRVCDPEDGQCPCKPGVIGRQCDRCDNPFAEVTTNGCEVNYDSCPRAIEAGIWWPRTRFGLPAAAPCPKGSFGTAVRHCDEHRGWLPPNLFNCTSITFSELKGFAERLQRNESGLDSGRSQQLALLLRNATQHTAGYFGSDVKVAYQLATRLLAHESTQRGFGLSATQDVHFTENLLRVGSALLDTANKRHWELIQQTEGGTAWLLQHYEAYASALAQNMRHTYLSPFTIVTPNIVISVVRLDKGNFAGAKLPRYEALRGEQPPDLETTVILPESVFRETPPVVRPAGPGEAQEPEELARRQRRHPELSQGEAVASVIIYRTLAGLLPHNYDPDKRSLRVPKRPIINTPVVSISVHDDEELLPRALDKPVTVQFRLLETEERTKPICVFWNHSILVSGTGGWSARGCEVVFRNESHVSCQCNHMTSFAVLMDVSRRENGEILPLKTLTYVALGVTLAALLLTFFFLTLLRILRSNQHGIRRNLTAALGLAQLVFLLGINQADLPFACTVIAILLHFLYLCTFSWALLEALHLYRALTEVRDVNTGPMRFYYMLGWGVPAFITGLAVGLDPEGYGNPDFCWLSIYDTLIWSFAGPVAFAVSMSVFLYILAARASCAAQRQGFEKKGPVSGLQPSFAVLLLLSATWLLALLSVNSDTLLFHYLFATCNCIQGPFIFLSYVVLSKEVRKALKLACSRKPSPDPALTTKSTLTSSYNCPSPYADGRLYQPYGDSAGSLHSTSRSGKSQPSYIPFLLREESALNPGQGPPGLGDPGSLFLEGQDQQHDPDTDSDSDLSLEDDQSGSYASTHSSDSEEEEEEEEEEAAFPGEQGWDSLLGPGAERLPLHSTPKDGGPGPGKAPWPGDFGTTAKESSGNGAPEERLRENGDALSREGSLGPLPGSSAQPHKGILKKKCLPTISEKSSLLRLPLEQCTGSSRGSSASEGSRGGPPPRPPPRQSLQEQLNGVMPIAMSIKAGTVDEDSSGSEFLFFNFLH
UniProt Q9NSP4: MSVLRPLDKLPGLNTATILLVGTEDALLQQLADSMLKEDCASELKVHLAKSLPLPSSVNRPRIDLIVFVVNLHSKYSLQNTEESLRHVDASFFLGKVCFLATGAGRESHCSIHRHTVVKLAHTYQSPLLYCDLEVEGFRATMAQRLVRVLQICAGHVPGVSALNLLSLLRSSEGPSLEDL
UniProt Q9BWV3: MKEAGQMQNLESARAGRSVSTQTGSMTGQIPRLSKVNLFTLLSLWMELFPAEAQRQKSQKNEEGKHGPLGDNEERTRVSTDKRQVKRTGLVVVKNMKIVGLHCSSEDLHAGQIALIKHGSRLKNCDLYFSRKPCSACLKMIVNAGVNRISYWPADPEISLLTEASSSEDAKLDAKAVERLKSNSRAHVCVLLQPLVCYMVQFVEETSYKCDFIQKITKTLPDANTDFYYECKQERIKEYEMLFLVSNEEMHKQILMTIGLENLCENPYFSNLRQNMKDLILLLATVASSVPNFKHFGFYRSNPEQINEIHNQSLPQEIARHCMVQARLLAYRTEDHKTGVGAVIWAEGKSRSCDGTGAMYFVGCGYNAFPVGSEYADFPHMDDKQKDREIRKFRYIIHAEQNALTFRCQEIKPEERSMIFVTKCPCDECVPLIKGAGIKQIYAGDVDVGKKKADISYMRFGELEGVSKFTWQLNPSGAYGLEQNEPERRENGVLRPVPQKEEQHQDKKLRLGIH

Legend:
Experiment in all cases: log2 fold change, soluble protein after heating vs DMSO (PISA); higher = thermal stabilisation; K562 lysate, 10 uM; active = over 0.2 and 3.5 SD of the protein, either way, in both replicates (recomputed)
entospletinib = compound: c1cn2cc(-c3ccc4cn[nH]c4c3)nc(Nc3ccc(N4CCOCC4)cc3)c2n1 [entospletinib]
Procedure, shortened: (§1)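 Pellets of K562 cells were dounce-homogenised in PBS pH 7.4 with 1 mM MgCl2, and the crude extract was held at 1 mg/mL protein for a 30 min treatment with 10 μM compound. Aliquots were heated for 3 min over 48°C-58°C and pooled before NP-40 was added to 0.5% at 4°C. The supernatant from 21,000xg for 90 min was quantified by TMTpro 16plex LC-MS/MS with channel sums equalised. Values are reported from duplicates as log-two fold change in thermal stability relative to solvent controls.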

[1] = compound: O=C1NC(=O)C(c2cnc3ccccn23)=C1c1cn2c3c(cc(F)cc13)CN(C(=O)N1CCCCC1)CC2
Procedure, shortened: as §1

vorinostat = compound: O=C(CCCCCCC(=O)Nc1ccccc1)NO [vorinostat]
Procedure, shortened: as §1

silmitasertib = compound: O=C(O)c1ccc2c(c1)nc(Nc1cccc(Cl)c1)c1ccncc12 [silmitasertib]
Procedure, shortened: as §1

Row | Target | log2 fold change (entospletinib) | log2 fold change [1] | log2 fold change (vorinostat) | log2 fold change (silmitasertib)
1 | CEP170 isoform 2 (UniProt Q5SW79) | inactive: -0.098 | – | – | –
2 | CEP162 (UniProt Q5TB80) | – | inactive: 0.192 | – | –
3 | CDT1 (UniProt Q9H211) | inactive: -0.046 | inactive: 0.052 | inactive: -0.295 | inactive: 0.009
4 | CDC27 (UniProt G5EA36) | – | inactive: -0.026 | inactive: -0.254 | inactive: 0.041
5 | CELSR2 (UniProt Q9HCU4) | – | – | inactive: 0.221 | inactive: 0.142
6 | CENPM (UniProt Q9NSP4) | inactive: 0.094 | inactive: 0.281 | inactive: -0.069 | inactive: -0.019
7 | CFL1 (UniProt E9PQB7) | – | inactive: -0.068 | – | –
8 | CDADC1 (UniProt Q9BWV3) | – | inactive: -0.052 | – | –
9 | CDC42BPG (UniProt Q6DT37) | – | inactive: -0.009 | – | –

Two records drawn at random from those above, as already listed:
Row | Target | log2 fold change (entospletinib) | log2 fold change [1] | log2 fold change (vorinostat) | log2 fold change (silmitasertib)
1 | CEP170 isoform 2 (UniProt Q5SW79) | inactive: -0.098 | – | – | –
9 | CDC42BPG (UniProt Q6DT37) | – | inactive: -0.009 | – | –
